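Whole-parasite assay of Trypanosoma brucei over 72 hours; the read-out is not stated. Concentration: 30 µM. Higher reads as stronger inhibition (inferred: compounds with an IC50 in retests scored well above the rest). Values scatter widely below zero; nearly all retest evidence comes from the higher of the two concentrations used. About 64,000 compounds were tested under these conditions; 1.5% (about 940) showed 50% or more at least once.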

Values are the deposited “Percent Effect”, in %. How 0% and 100% were set is not recorded. Most values in the screen are low, and negative values occur. This is an unselected part of the compounds tested.

| Compound | Percent Effect |
|---|---|
| `Cc1nc(C)n(CC2CCCCN2CCCS(=O)(=O)N(C)C)n1` (stereo not shown) | -12.45% |
| `[H][C@@]12CCN(C(=O)c3cccnc3OC)C[C@@]1([H])O[C@H](c1nccs1)C2` | -31.44% |
| `Cc1ccc(C)c(OC(C)C(=O)NCc2cccnc2)c1` (stereo not shown) | 1.231% |
| `O=C(NCc1ccc(N2CCSCC2)cc1)NCc1cc[nH]n1` | -10.34% |
| `CCN1CCN(CCNC(=O)c2ccn(-c3ccc(F)cc3)n2)CC1` | -20.96% |
| `O=C(Cn1cccn1)N1CCC(Cn2cc(-c3ccsc3)nn2)CC1` | -8.961% |
| `O=C(O)C(F)(F)F.[H][C@@]12COC[C@]1(COCC(=O)N(C)C)CN(Cc1nc(C)cs1)C2` | -40% |
| `CCC(C)CS(=O)(=O)NC(=O)C1CC1` (stereo not shown) | -64.29% |
| `CC(C)(C)OC(=O)NC(C)(C(N)=O)c1cccc(Cl)c1` (stereo not shown) | -47.16% |
| `Cc1nn(C)c2cnn(Cc3ccc(C(=O)N4CCCCC4)o3)c12` | -1.58% |
| `[H][C@]12C[C@@H](Cn3cncn3)N(C(C)=O)[C@@]1([H])CCN(Cc1nccs1)C2` | -24.8% |
| `COc1cccc(C(=O)N(C)Cc2ncc(C)c(OC)c2C)c1OC` | 25.68% |
| `CC(=O)C(Cc1ccccc1)NC(=O)CSc1nccn1C1CC1` (stereo not shown) | -12.41% |
| `CNC(=O)CN1C(=O)CN(C(=O)COC)CCC(OC)c2ccccc21` (stereo not shown) | -42.72% |
| `CCN1CCC(CNC(=O)C(c2ccc(F)cc2)N(C)C)(N(C)C)CC1` (stereo not shown) | -36.38% |
| `CCOC(C)c1noc(CN2CCN(CC3CCCC3)CC2)n1` (stereo not shown) | -1.782% |
| `O=C1CC(C(=O)O)C2(CCN(C(=O)NCc3ccc(Cl)cc3)CC2)N1` (stereo not shown) | -0.5339% |
| `CCCN(CCc1ccccn1)C(=O)CCc1cnn(C)c1` | -34.35% |
| `Cc1noc(-c2ccc(N3CCN(Cc4nccn4C)CC3)nc2)n1` | -21.82% |
| `CCc1cc(C(=O)N2CCC(O)(Cn3ccc4ccncc43)CC2)no1` | 13% |
| `O=C(O)C(F)(F)F.[H][C@]12CN(Cc3cc(C)on3)C[C@@]1([H])OCCN(C(=O)c1cccn1C)C2` | 5.284% |
| `O=C(O)C(F)(F)F.O=C(O)C(F)(F)F.O=C(O)C(F)(F)F.c1cncc(COCC2CN(Cc3cccnc3)Cc3ccnn3C2)c1` (stereo not shown) | -220.6% |
| `CCn1cc(Cl)c(C(=O)NCCCO)n1` | -20.67% |
| `COCc1nc(N(C)C)ncc1C(=O)Nc1ccn(C)n1` | 27.53% |
| `CC(C(=O)NC1CC1)S(=O)(=O)c1cc2c(cc1Cl)OCCO2` (stereo not shown) | -10.93% |
| `Cn1ccnc1CN1CCN(CCOc2ccccc2F)CC1` | 17.37% |
| `CCOCCCC(=O)Nc1ccc(OCc2noc(C3CC3)n2)cc1` | -22.98% |
| `CC(C)N(C)[C@@H]1CCN(Cc2nccs2)[C@H]1Cc1ccncc1.O=C(O)C(F)(F)F.O=C(O)C(F)(F)F.O=C(O)C(F)(F)F` | -51.23% |
| `COc1ccc(OC)c2c(C)cc(N(CCO)CCO)nc12` | -47.71% |
| `CCc1nc(CN(C)c2nccc(N3CCCC(O)C3)n2)no1` (stereo not shown) | -26.03% |
| `Cc1ccc(CNCc2cccc(NC(=O)CCN3CCOCC3)c2)s1` | -49.67% |
| `CN(CCCc1ccccc1)C(=O)c1ccccc1NCC(=O)O` | -11.09% |
| `Cc1cc(S(=O)(=O)N(CCO)C2CC2)ccc1F` | -45.16% |
| `Cc1nnc(SCCCNC(=O)c2ccc3c(c2)OCO3)s1` | -12.99% |
| `O=c1cc(-c2cc(O)cc(CCC3CCCCN3)c2)cc[nH]1` (stereo not shown) | -0.2902% |
| `COC(=O)C1CN(Cc2ccn(-c3ccc(F)cc3)n2)C[C@@H](C)O1` (stereo partly shown) | -53.86% |
| `CCc1cnc(N)nc1N1CCCC2(CCOCC2)C1` | -82.8% |
| `Cc1noc(-c2ccc(Oc3cccc(CN4CCCC4)c3F)nc2)n1` | -6.557% |
| `CCc1nc(C2CCCN(C(=O)c3ccccc3O)C2)no1` (stereo not shown) | -11.38% |
| `Cc1noc(C(C)N2CCN(Cc3ccco3)CC2)n1` (stereo not shown) | 16.34% |
| `CN(C)C(=O)c1n[nH]c2c1CN(CC1CCCCC1)C2.O=C(O)C(F)(F)F.O=C(O)C(F)(F)F` | -36.34% |
| `COc1ccccc1OCc1cc(C(=O)N2CCC(NC(C)=O)C2)n[nH]1` (stereo not shown) | -20.74% |
| `CCCc1nc(C(=O)N[C@H]2COC[C@@H]2N2CCN(C)CC2)cs1` | -8.41% |
| `[H][C@@]12CNC[C@@]1([H])N(CC(C)C)C(=O)CO2` | -30.4% |
| `O=C(O)C(F)(F)F.c1c2c(nn1CC1CCOCC1)C(CNC1CCOCC1)OCC2` (stereo not shown) | -47.38% |
| `CCN1CC[C@]2(CN(Cc3nccs3)C[C@H]2c2ccccc2)C1=O.O=C(O)C(F)(F)F` | -7.003% |
| `Cc1cc(C)c(CNC(=O)N2CCCC2c2ccccc2)c(=O)[nH]1` (stereo not shown) | 4.567% |
| `N[C@@H]1CC[C@@H](Nc2nccc(CCC(F)(F)F)n2)C1` | -8.057% |
| `CN(C)c1cc(C(=O)N2CCCN(Cc3nccn3C)CC2)ccn1` | -10.54% |
| `CCN(CC)S(=O)(=O)N1CCCN(CC(=O)NC(C)C)CC1` | -19.51% |
| `Cn1cc(Br)c(=O)c(NS(=O)(=O)c2ccc3c(c2)CCC3)c1` | -4.67% |
| `CC1CCCCN1CCNC(=O)c1scnc1Cl` (stereo not shown) | -18.49% |
| `Cc1nn(C)c(C)c1-c1ccnc(N2CCCN(CC(C)C)CC2)n1` | -4.401% |
| `CC[C@@H]1N(CC2CCC2)CCC[C@]12CCC(=O)N2Cc1ccncc1` | 18.01% |
| `CC(C)COCCC(=O)Nc1ccc2oc(=O)n(CCN(C)C)c2c1` | -28.08% |
| `CCc1ccccc1OCCNCCc1c[nH]cn1` | -2.808% |
| `CN(C)C(=O)N1CCN(Cc2nnc(C(C)(C)C)o2)CC1` | -11.7% |
| `Cc1nn(C(C)C)c(C)c1CN1CCC(c2cc(C(C)C)n[nH]2)CC1` | -19.32% |
| `CC(C1CCN(Cc2cnn(C)c2C2CC2)CC1)N(C)C` (stereo not shown) | -7.419% |
| `Cc1c(C)n2c(SCC(=O)N3CCOCC3)nnc2[nH]c1=O` | -4.214% |
| `CC(=O)N1CCC(NC[C@H]2Cn3c(-c4ccccc4)cnc3CO2)CC1` | -8.123% |
| `c1ccc(O[C@H]2COCCN(Cc3c[nH]c4ccccc34)C2)cc1` | -8.128% |
| `COc1cc(C)c2c(c1C)C[C@@H](C(C)C(=O)O)CC2` (stereo partly shown) | -25.18% |
| `CC(NC(=O)Cn1cccn1)c1cccnc1` (stereo not shown) | 7.718% |
| `CC(C)Nc1nc2c(c(NC3CC3)n1)CN(C(=O)Cc1ccsc1)CC2` | -39.49% |
| `Cc1ccccc1CC(C)(C)NC(=O)COc1cccc(C(N)=O)c1` | -17.68% |
| `Cc1nc(C)n(CC2CCCCN2Cc2nc(-c3ccoc3)no2)n1` (stereo not shown) | 8.115% |
| `CC(NCCn1cccn1)c1ccc(F)cc1F` (stereo not shown) | -22.33% |
| `COc1ccc(N2CCC(NC(=O)c3ccc(C#N)cc3)CC2)cc1` | 2.565% |
| `Cc1occc1C(=O)N1CCC(C(O)c2ccc(Cl)cc2)CC1` (stereo not shown) | -31.44% |
| `Cc1cc(Br)oc1C(=O)N1CCC(N(C)C)CC1` | -57.63% |
| `COc1ccc(Cc2ncc3c(n2)CN(C(=O)CCO)C3)cc1` | -51.37% |
| `CCOc1ccc(CN2C(=O)CC(C)(C)C2=O)nc1` | -30.77% |
| `CC(CNC(=O)c1cn(-c2ccccc2)nn1)Cn1cccn1` (stereo not shown) | -6.372% |
| `Cc1cccc(CN2CCc3nnc(Cn4cccc4)n3CC2)n1.O=C(O)C(F)(F)F` | -17.14% |
| `O=C(Nc1cccc(N2CCCC2)c1)N[C@H](CCO)c1ccccc1` | 7.535% |
| `Cc1cc(OC(F)F)c(C(=O)N2CC[C@H](O)C2)s1` | -10.99% |
| `Cc1c[nH]nc1C1CCCCN1C(=O)CNS(C)(=O)=O` (stereo not shown) | -43.39% |
| `CCC(CN1CCCC1)NC(=O)Cc1c(C)[nH]c2c(C)cc(C)cc12.O=C(O)CC(O)(CC(=O)O)C(=O)O` (stereo not shown) | 9.843% |
| `O=C(O)C(F)(F)F.[H][C@@]12C[C@@H](OCc3ccccc3)CN1CCN(C(=O)c1cnccn1)C2` | -41.53% |
| `O=C(NCCO)c1coc(Cn2cnc3ccccc32)n1` | 3.039% |
| `COCCN1CCC(CN(CC2CCCO2)C(=O)C2CCOCC2)CC1` (stereo not shown) | -0.3165% |
| `[H][C@@]12COC[C@]1([H])[C@H](NC(=O)c1cscn1)CN2c1ncc(F)cn1` | -6.738% |
| `CCOc1cccc2c1OCC(C(=O)NS(=O)(=O)c1cncc(Br)c1)=C2` | -13.17% |
| `COc1ncc(NCc2ccc(F)cc2)cc1C(N)=O` | -48.82% |
| `CC(Nc1ncnc2sccc12)c1cnn(C)c1` (stereo not shown) | -10.94% |
| `O=C1CC2(CCN(Cc3ccc4cccc(O)c4n3)CC2)CN1` | -5.378% |
| `Cc1cccc(C(=O)N2CCCCC2c2ccc(CN(C)C)cc2)c1` (stereo not shown) | -4.592% |
| `CN(CCc1ccccc1)Cc1cc(C(=O)N2CCCC2(C)C)no1` | -13.13% |
| `O=C(O)C(F)(F)F.[H][C@@]12CN(C(=O)c3ccco3)C[C@@]1([H])N(Cc1cccnc1)C(=O)CO2` | -36.68% |
| `O=C(c1cc(COc2ccc3c(c2)OCO3)[nH]n1)N1CCCC(O)C1` (stereo not shown) | -35.12% |
| `CSCC(C)(O)CNC(=O)c1cccc(Cl)c1Cl` (stereo not shown) | -14.82% |
| `CCc1nc(C)c(-c2nccn2CC2CCN(C3CCCC3)CC2)[nH]1` | -4.398% |

The last 7 entries again:

| Compound | Percent Effect |
|---|---|
| `O=C1CC2(CCN(Cc3ccc4cccc(O)c4n3)CC2)CN1` | -5.378% |
| `Cc1cccc(C(=O)N2CCCCC2c2ccc(CN(C)C)cc2)c1` (stereo not shown) | -4.592% |
| `CN(CCc1ccccc1)Cc1cc(C(=O)N2CCCC2(C)C)no1` | -13.13% |
| `O=C(O)C(F)(F)F.[H][C@@]12CN(C(=O)c3ccco3)C[C@@]1([H])N(Cc1cccnc1)C(=O)CO2` | -36.68% |
| `O=C(c1cc(COc2ccc3c(c2)OCO3)[nH]n1)N1CCCC(O)C1` (stereo not shown) | -35.12% |
| `CSCC(C)(O)CNC(=O)c1cccc(Cl)c1Cl` (stereo not shown) | -14.82% |
| `CCc1nc(C)c(-c2nccn2CC2CCN(C3CCCC3)CC2)[nH]1` | -4.398% |

Source: ChEMBL document CHEMBL3988442, “University of Dundee, Small-Polar-MMV Screening Library” (2021).